## Percent effect of library compounds

The values are deposited in ChEMBL (CHEMBL3988442, “University of Dundee, Small-Polar-MMV Screening Library” (2021)).

Each number is a percent effect as filed. The controls that fix the scale are not given in the record; negative values are as filed. This is an unselected part of the compounds tested.

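Assay of Toxoplasma gondii numbers, read through their beta-galactosidase reporter with a colour substrate. Tested at 50 µM. Higher reads as fewer parasites (inferred from which compounds were picked for retests). Of about 18,000 compounds tested this way, about 170 (0.94%) reached 50% or more in at least one test.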

| # | compound | percent effect |
|---|---|---|
| 1 | `O=C(CNc1ccc(Br)cc1)NCc1ncc[nH]1` | 5.475 |
| 2 | `c1cc(CC2CCNCC2)ccn1` | 5.653 |
| 3 | `Cc1ccc2oc(C(=O)NC(CO)CO)cc2c1` | -29.06 |
| 4 | `Cc1ccc(CCCC(=O)Nc2nnc[nH]2)cc1` | -8.564 |
| 5 | `CCN(Cc1c(F)cccc1F)S(C)(=O)=O` | -3.184 |
| 6 | `CCS(=O)(=O)c1ccc(S(=O)(=O)N2CC[C@H](N)C2)cc1` | -5.049 |
| 7 | `CCOC(=O)c1sccc1-n1cnnn1` | -7.776 |
| 8 | `CC(NC(=O)c1n[nH]c2c1CCC2)c1n[nH]c(=O)[nH]1` (stereo unspecified) | 4.545 |
| 9 | `CC(C)(C)c1noc(CN2CCC(O)CC2)n1` | -0.3483 |
| 10 | `Cc1ccsc1CNC(=O)CSCC#N` | 9.444 |
| 11 | `COc1ccccc1OC1CN(c2nccc(N)n2)C1` | 4.204 |
| 12 | `Cc1cccc(N2CCN(CCCN)CC2)c1` | 21.17 |
| 13 | `CCNC(=O)N1CCC(=O)N(CC)C2(CCOCC2)C1` | -5.41 |
| 14 | `CCOCCC(=O)N1CCOc2ccc(CO)cc2C1` | 24.16 |
| 15 | `O=S(=O)(NCC(O)c1ccsc1)c1c[nH]cn1` (stereo unspecified) | -1.369 |
| 16 | `CNCC1CCN(c2ccncc2)CC1` | -10.74 |
| 17 | `NCC(O)c1ccc(Cl)c(F)c1` (stereo unspecified) | 20.05 |
| 18 | `Cc1cccc(C)c1NC(=O)CN1CCNCC1` | 18.17 |
| 19 | `COc1ccccc1NC(=O)c1ccc(C)nc1` | -8.328 |
| 20 | `Cc1ocnc1C(=O)Nc1cncc(Br)c1O` | -0.5734 |
| 21 | `Cc1cccc(OCC(=O)NC2CCCNC2)c1` (stereo unspecified) | -11.27 |
| 22 | `COCC(N)Cc1ccccc1` (stereo unspecified) | -4.822 |
| 23 | `CN(C)c1ccc(N2CCNCC2)cc1` | 0.5425 |
| 24 | `O=C(Cc1cccs1)NCC(O)c1ccsc1` (stereo unspecified) | 3.874 |
| 25 | `CCN(Cc1ccoc1)C(=O)C1(C)CCCNC1` (stereo unspecified) | -1.31 |
| 26 | `Cc1nn(CCC#N)c(C)c1Cl` | -5.083 |
| 27 | `CCOCCCC(=O)N(C)Cc1cnc(C)s1` | 10.15 |
| 28 | `Cn1cc(CC2CNC2)cn1` | -1.062 |
| 29 | `Cc1nccn1CCCN1CCC2(CCO2)CC1` | -7.281 |
| 30 | `COCC(O)CN(C)CCn1cc(Br)cn1` (stereo unspecified) | 16.66 |
| 31 | `CCS(=O)(=O)c1ccc(NC(C)c2ccncc2)cc1` (stereo unspecified) | -11.22 |
| 32 | `CNS(=O)(=O)CCNC(=O)C(C)c1ccccc1` (stereo unspecified) | -5.838 |
| 33 | `COCCN(C)CC(=O)N1C[C@@H](C)[C@@](C)(O)C1` | 26.19 |
| 34 | `CN1CCCN(C(=O)c2ccccc2I)CC1` | -20.49 |
| 35 | `COCCn1ccnc1CN1C[C@H](N(C)C)C[C@H]1CO` | -3.185 |
| 36 | `Cc1noc(NCc2cc3ccccc3nc2O)n1` | -3.652 |
| 37 | `Cc1ccc(C(C)NC(=O)CCNS(C)(=O)=O)o1` (stereo unspecified) | -3.239 |
| 38 | `c1c[nH]c(CN2CCC3(CCOCC3)CC2)n1` | -4.119 |
| 39 | `NCc1ccccc1OCCN1CCOCC1` | -0.4782 |
| 40 | `CC(C)N(C)S(=O)(=O)N(C)Cc1ccc(Br)o1` | -2.964 |
| 41 | `O=C(NCCNCC1(O)CCNC1)c1ccccc1Cl` (stereo unspecified) | -4.815 |
| 42 | `CSCC[C@H](NC(=O)C1CC1)c1nc2ccccc2[nH]1` | -11.96 |
| 43 | `CNS(=O)(=O)CCCN1CCOCC1c1cccn1C` (stereo unspecified) | -18.65 |
| 44 | `CCN1C(=O)C[C@H](CN)[C@H]1c1cccnc1` | -3.838 |
| 45 | `CCN1CCN(CCC(=O)Nc2cccc(C)c2)CC1` | 31.41 |
| 46 | `CCn1nc(C(=O)NC)c2ccccc2c1=O` | -8.907 |
| 47 | `CCN1CCCC1CNC(=O)c1c[nH]nn1` (stereo unspecified) | -10.05 |
| 48 | `O=C(c1cc(Br)c[nH]1)N1CCCCC1` | -0.2024 |
| 49 | `CC(NC(=O)CCc1ccccn1)C(=O)NC(C)(C)C` (stereo unspecified) | -12.79 |
| 50 | `CCOCCc1nnc(N)s1` | 5.581 |
| 51 | `CN1C[C@@H]2CN(C(=O)CCc3cccnc3)C[C@@H]2C1` | 0.07643 |
| 52 | `Cc1cc(CNC(C)Cn2cccn2)no1` (stereo unspecified) | 9.651 |
| 53 | `CN(C)C(CNC(=O)N1CCOCC1)c1ccsc1` (stereo unspecified) | -6.326 |
| 54 | `CCNCCNC(=O)CCc1ccc(F)cc1` | 22.65 |
| 55 | `CN(C)c1ncc(CNC(=O)C2CC2)n1C` | 4.161 |
| 56 | `CSCc1ccc(N2CCC(CNC(C)=O)CC2)nc1` | -0.4525 |
| 57 | `O=C(Cn1cccnc1=O)N(Cc1cccs1)C1CC1` | -7.642 |
| 58 | `O=S1(=O)CCNCC12CCCCC2` | 4.759 |
| 59 | `CCC(C#N)NC(=O)c1cnc(OC(C)C)c(Cl)c1` (stereo unspecified) | 77.34 |
| 60 | `CCn1nnc2cc(C(=O)NCCCC#N)ccc21` | -3.083 |
| 61 | `O=C(NCCCN1CCOCC1)NCc1ccsc1` | -20.57 |
| 62 | `COCCCNC(=O)c1ccc(Cn2cncn2)cc1` | -3.441 |
| 63 | `O=C(NCC1CCCCN1)Nc1ccccc1` (stereo unspecified) | 4.524 |
| 64 | `CC(O)c1ccc2c(c1)CC(=O)N2` (stereo unspecified) | 15.63 |

Repeated from the top, 8 entries:

{"compound": "O=C(CNc1ccc(Br)cc1)NCc1ncc[nH]1", "percent effect": 5.475}
{"compound": "c1cc(CC2CCNCC2)ccn1", "percent effect": 5.653}
{"compound": "Cc1ccc2oc(C(=O)NC(CO)CO)cc2c1", "percent effect": -29.06}
{"compound": "Cc1ccc(CCCC(=O)Nc2nnc[nH]2)cc1", "percent effect": -8.564}
{"compound": "CCN(Cc1c(F)cccc1F)S(C)(=O)=O", "percent effect": -3.184}
{"compound": "CCS(=O)(=O)c1ccc(S(=O)(=O)N2CC[C@H](N)C2)cc1", "percent effect": -5.049}
{"compound": "CCOC(=O)c1sccc1-n1cnnn1", "percent effect": -7.776}
{"compound": "CC(NC(=O)c1n[nH]c2c1CCC2)c1n[nH]c(=O)[nH]1", "stereo": "stereo unspecified", "percent effect": 4.545}